## Library screen at single concentrations

Sequences of proteins named here, by UniProt entry; tags and fusion partners are left off. Residues count along the entry.
UniProt I6X8D2, whole entry: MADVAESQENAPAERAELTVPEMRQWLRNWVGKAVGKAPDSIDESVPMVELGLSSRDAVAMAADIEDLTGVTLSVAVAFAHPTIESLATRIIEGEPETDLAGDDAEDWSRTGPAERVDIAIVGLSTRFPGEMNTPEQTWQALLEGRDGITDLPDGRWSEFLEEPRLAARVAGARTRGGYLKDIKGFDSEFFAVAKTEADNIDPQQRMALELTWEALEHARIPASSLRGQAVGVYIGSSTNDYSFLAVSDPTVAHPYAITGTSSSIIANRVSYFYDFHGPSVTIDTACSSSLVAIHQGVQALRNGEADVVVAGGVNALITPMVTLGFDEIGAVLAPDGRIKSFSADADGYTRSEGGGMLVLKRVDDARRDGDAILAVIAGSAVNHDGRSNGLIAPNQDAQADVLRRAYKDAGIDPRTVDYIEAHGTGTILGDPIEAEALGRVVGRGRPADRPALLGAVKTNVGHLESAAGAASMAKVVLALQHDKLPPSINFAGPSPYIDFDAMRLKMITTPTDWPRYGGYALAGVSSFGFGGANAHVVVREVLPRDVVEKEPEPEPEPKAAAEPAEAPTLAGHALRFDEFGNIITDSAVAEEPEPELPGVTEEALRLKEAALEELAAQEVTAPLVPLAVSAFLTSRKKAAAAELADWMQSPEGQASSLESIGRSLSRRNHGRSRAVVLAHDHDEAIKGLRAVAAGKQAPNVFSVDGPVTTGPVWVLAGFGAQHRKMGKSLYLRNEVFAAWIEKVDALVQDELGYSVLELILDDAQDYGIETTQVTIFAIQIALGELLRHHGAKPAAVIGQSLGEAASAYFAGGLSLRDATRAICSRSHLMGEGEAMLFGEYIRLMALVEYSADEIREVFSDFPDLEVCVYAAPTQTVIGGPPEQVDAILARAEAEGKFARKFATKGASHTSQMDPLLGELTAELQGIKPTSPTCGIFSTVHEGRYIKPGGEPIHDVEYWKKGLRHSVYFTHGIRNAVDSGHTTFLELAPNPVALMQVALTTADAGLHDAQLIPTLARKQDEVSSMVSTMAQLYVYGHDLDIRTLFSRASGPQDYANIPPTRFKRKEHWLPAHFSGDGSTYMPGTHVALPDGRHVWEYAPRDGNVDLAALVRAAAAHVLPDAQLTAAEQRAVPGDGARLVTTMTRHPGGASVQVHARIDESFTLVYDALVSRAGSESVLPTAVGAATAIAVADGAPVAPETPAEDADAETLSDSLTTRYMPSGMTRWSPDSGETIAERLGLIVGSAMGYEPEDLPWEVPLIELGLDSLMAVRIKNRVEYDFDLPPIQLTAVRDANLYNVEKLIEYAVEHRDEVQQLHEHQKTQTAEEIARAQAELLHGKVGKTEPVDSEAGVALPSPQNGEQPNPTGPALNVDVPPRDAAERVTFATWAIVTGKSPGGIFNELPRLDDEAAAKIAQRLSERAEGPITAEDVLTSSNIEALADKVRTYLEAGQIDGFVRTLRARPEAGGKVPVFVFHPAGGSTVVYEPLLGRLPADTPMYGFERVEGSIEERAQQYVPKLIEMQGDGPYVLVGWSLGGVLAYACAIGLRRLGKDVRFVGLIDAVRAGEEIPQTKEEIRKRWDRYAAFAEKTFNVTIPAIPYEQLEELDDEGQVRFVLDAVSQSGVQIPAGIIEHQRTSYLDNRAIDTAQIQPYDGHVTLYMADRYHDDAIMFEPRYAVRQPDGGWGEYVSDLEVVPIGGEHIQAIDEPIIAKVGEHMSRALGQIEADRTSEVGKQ
UniProt A4I591, 1-473: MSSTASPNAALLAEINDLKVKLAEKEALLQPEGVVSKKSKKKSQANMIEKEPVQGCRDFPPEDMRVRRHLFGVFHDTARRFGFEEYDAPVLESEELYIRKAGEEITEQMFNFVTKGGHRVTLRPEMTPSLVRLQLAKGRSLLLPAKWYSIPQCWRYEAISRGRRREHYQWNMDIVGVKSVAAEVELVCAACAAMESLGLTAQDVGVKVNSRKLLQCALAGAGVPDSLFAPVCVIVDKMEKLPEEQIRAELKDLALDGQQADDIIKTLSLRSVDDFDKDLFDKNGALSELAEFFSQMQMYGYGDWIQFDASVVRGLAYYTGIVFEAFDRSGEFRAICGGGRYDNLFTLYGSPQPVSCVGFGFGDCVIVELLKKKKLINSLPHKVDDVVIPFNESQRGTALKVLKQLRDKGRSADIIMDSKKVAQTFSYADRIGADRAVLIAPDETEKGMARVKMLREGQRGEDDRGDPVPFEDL

The filed quantity is “Percent Effect” (%). How 0% and 100% were set is not recorded. Most values in the screen are low, and negative values occur. This is an unselected part of the compounds tested. Two or more numbers in one place are separate tests of the same structure; such repeats can differ widely. A dash means the value is not listed here; it may have been measured.

Leishmania in macrophages: 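Cell assay of Leishmania donovani living inside macrophages; the read-out is not stated. Concentration: 30 µM. Higher reads as stronger inhibition (inferred: compounds with an IC50 in retests scored well above the rest). About 69,000 compounds were tested under these conditions; 1.5% (about 1,000) showed 50% or more at least once.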
Pks13 thioesterase: 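Polyketide synthase Pks13, Mycobacterium tuberculosis (UniProt I6X8D2). Enzyme assay of the thioesterase domain of polyketide synthase 13; the read-out is not stated. Tested at 30 µM. The record gives no direction; the compounds picked for IC50 retests had high values, so higher reads as stronger inhibition. About 67,000 compounds were tested under these conditions; 0.46% (about 300) showed 50% or more at least once.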
LiHisRS: 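Histidine-tRNA ligase, Leishmania infantum (UniProt A4I591). Enzyme assay of histidyl-tRNA synthetase; the read-out is not stated. Concentration: 30 µM. The record gives no direction; compounds that gave an IC50 in retests scored well above the rest, so higher reads as stronger inhibition. The assay is labelled LdHisRS but filed under L. infantum. About 69,000 compounds were tested under these conditions; 0.6% (about 410) showed 50% or more at least once.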

structure	Leishmania in macrophages	Pks13 thioesterase	LiHisRS
Cn1cnc2c1C(COCC1CC1)CN(C(=O)c1cccs1)C2 (stereo not drawn)	-4.957% and -0.484%	-15.43%	16.81%
O=S(=O)(N1CCCCCC1)N1CCN(Cc2ccc(F)cc2Br)CC1	-23.01%	-5.032%	17.02%
NC(=O)C1CCN(C(=O)CCn2ccc3cc(Br)ccc32)CC1	-5.197%	-4.884%	6.731%
CSc1ccsc1C(=O)NS(=O)(=O)c1ccc(F)cc1	10.19%	-6.333%	14.4%
Cc1ccc(NC(=O)c2nc3c(s2)CCCN3C(C)C)cn1	5.402%	-9.2%	30%
Cn1ncc(C(=O)O)c1C(=O)Nc1nc2ccc(Br)cc2s1	-5.036%	18.92%	-4.762%
COc1ccc2c(ccn2CC(=O)N2CCCC2c2cnn(C)c2)c1 (stereo not drawn)	-5.465%	-43.27%	15.52%
CCCN(CCC)C(=O)CN1CCCC1C(=O)N(C)C (stereo not drawn)	25.71%	-3.706%	9.302%
O=C(Nc1ncn(Cc2cccc(Br)c2)n1)C1CCC1	7.865%	-6.669%	15.38%
Cc1cnn(C2CN(Cc3noc(C)n3)C2)c1	-40.44%	-2.177%	16.44%
Cc1nonc1C(=O)N1CC[C@@]2(O)CCN(C3CCCCC3)C[C@H]2C1	-	-30.14%	11.84%
CC1(C(=O)NCc2cccnc2Oc2ccc(F)c(F)c2)CCCNC1 (stereo not drawn)	-16.47%	63.69%	24.66%
COc1ncc(C2(O)CCN(Cc3cc(F)cc(F)c3)CC2)c(OC)n1	9.016% and -5.183%	5.192%	18.84%
CN(C)C(=O)CC1CCOc2ccccc21 (stereo not drawn)	17.75%	-16%	8.219%
CC(=O)c1cccc(-n2nc(C(C)=O)c(C(C)=O)c2C)c1	-0.2536%	-1.9%	-1.099%
COc1ccc(C)cc1C(=O)N1C[C@@H](CN(C)CCO)[C@@H](CO)C1	17.57%	-14.81%	16.13%
O=C(CC1CCCC1)N1CCC(c2noc(-c3ccccn3)n2)CC1	-35.39%	6.916%	7.042%
CCOCCN1CCN(Cc2csc(-c3cnn(C)c3)n2)CC1	27.88%	0.9543%	3.571%
CCC(C)N(Cc1ccsc1)C(=O)c1ccc2[nH]nnc2c1 (stereo not drawn)	-39.94%	-59.4%	13.83%
Cc1c(C(=O)N2CCNC(=O)C2)sc2nc[nH]c(=O)c12	35.98%	-14.67%	7.865%
CN(CCCO)c1nc(-c2ccc(C(N)=O)cc2)nc2c1CCNC2	20.7%	-22.47%	8.392%
CN1CCN([C@@H]2CCN(Cc3ccc4cc(F)ccc4n3)C[C@H]2O)CC1	33.38%	-33.57%	11.67%
CCN(C)C[C@@H]1CN(S(=O)(=O)c2cccc(C#N)c2)C[C@@H]1CO	0.1629%	-17.11%	-4%
CN(C)c1nccc(-c2c[nH][nH]c2=O)n1	30.5% and 11.18%	51.37%	22.86%
[H][C@@]12CN(c3ncccn3)C[C@H](C(=O)NCCOC)[C@]1([H])CCO2	52.44%	-	-
CCCc1ccc(CN2CCC3(CCC(=O)N(CCO)C3)CC2)o1	33.61%	-13.84%	15%
CCC(NC(=O)c1cc(CC(C)C)nn1C)c1cc(C)ccn1 (stereo not drawn)	40.26%	-36.32%	10.53%
OCC1CCCN1c1cc(NCc2cc3ccccc3o2)ncn1 (stereo not drawn)	-73.24%	-13.57%	-39.76%
CC(C)(C)C(=O)c1ccsc1NC(=O)CCNC(=O)c1ccco1	-1.23%	-37.96%	17.95%
Cc1cc(C)c(C(=O)N2CCC3(CCCN(CC(C)(C)C)C3)C2)[nH]1 (stereo not drawn)	23.44%	-12.01%	19.19%
CN(Cc1ncnn1C)C(=O)Nc1ccc(OC(F)F)cc1	20.21%	-1.582%	8.065%
CN(CCC#N)C(=O)C(C)(C)Oc1ccc(C(N)=O)cc1	-6.528%	-21.99%	11.88%
O=C(Cc1ccccn1)N1CCN2C[C@H](Oc3cncnc3)C[C@H]2C1	-	5.035%	22%
CC(NCc1cc(O)c2cccc(F)c2n1)c1ccc(S(C)(=O)=O)cc1 (stereo not drawn)	21.09%	-0.8942%	7.292%
O=C(Cn1cc(I)cn1)Nc1cccnc1	25.54%	-21.99%	11.43%
O=C(O)C(F)(F)F.[H][C@@]12COC[C@]1(C(=O)NC(C)C)CN(Cc1scnc1C)C2	-2.598%	-	-
CC(C)CCn1nc2ccc(S(=O)(=O)N3CCOCC3)cn2c1=O	-38.47%	-2.263%	26.09%
O=C(C[C@H]1[C@H]2CN(Cc3ccsc3)C[C@@H]12)N1CCCC1	-	-23.78%	15.53%
Cc1noc(C)c1C(=O)N1CCCN(Cc2cscn2)CC1	13.06%	-14.94%	13.27%
CC(C1CCN(Cc2cnc(-c3cccs3)nc2)CC1)N(C)C (stereo not drawn)	-1.647%	-18.64%	19.78%
CC1CCN(CC(=O)N(Cc2ccccc2)Cc2nccs2)C1=O (stereo not drawn)	-0.5421%	-24.51%	-282.5%
CNC(=O)C(C)(C)NC(=O)c1cc(OCC2CCC2)cc(C(=O)OC)c1	28.67%	-14.12%	15.38%
Cc1nn(C)c(N(C)C)c1CNC(C)COc1cccc(F)c1 (stereo not drawn)	-12.36%	-13.75%	-9.375%
CN(C)S(=O)(=O)c1ccc(-c2nc(C#N)c(NC3CC3)o2)o1	20.5%	73.31%	6.522%
COCC(=O)N1C[C@@H](C)[C@](O)(C(C)C)C1	41.16%	-5.572%	15.96%
CCOCC1CCN(C(=O)c2sc(C)cc2OC(F)F)CC1	12.41%	-7.452%	12.09%
O=C(c1cnccn1)N1C[C@@H]2C[C@@H](c3nc(C4CC4)cs3)O[C@@H]2C1	-	-1.953%	22.34%
CC(=O)NCC(=O)N1CCn2cc(CN3CCCCC3)nc2C1	-	-28.04%	13.89%
c1ccc(OCC2CC2)c(CNC2CCc3ncnn3C2)c1 (stereo not drawn)	11.47%	-25.53%	4.63%
OCCN(Cc1ccncc1)CC1(c2ccc(Cl)cc2)CC1	-	9.857%	14.18%
COc1cccc(NC(=O)CN2CCN(S(C)(=O)=O)CC2)c1	-12.08%	-5.529%	6.452%
O=C(O)C(F)(F)F.O=C(O)C(F)(F)F.O=C(O)C(F)(F)F.[H][C@@]12CCC(=O)N(Cc3cccc(C)n3)[C@]1([H])CCN2Cc1nccn1C	28.06%	-	-
c1cnnc(NCC2CN(Cc3ccon3)CCO2)c1 (stereo not drawn)	-24.26%	-15.95%	7.143%
COc1ccc(CN2CCn3cc(CN4CCN(C)CC4)nc3C2)cc1	-	-28.05%	9.023%
O=C(c1ccc(F)cc1)N1CC[C@H]2[C@H]1CCN2CC1CC1	-	-22.6%	11.54%
CN1CC(=O)N(c2ccsc2)CC12CCN(C(=O)c1ccccc1)C2 (stereo not drawn)	-	-3.96%	21.57%
O=C(NCC(F)(F)F)C1CCC(=O)N(C2CCCC2)C1 (stereo not drawn)	15.55%	-23.57%	12.12%
CN(C)CCN1CCC2(CCCN(C(=O)C3CCC3)C2)CC1	-	-30.36%	16%
Cc1ccc(C(=O)CC(SC2CCCCC2)C(=O)O)cc1 (stereo not drawn)	23.93%	-0.7399%	10.42%
Cc1cccc(CN2C[C@@H]3CN(C(=O)NC(C)C)C[C@@H]3C2=O)c1	-	-5.45%	12.26%
O=S(=O)(C1CC1)N1C[C@@H]2CN(Cc3ccoc3)CCO[C@@H]2C1	-	-32.15%	13.68%
Cc1cc(-c2cnn(CCNC(=O)c3cnn(C)c3)c2C2CC2)on1	1.556% and -10.73%	-12.46%	14.43%
CCN(CC)CCCNC(=O)c1nn(CC)cc1Cl	-46.13%	-23.23%	10.34%
Cc1ccc(CN2CCC[C@@H]3CN(C(=O)c4ccco4)C[C@@H]32)s1	-	-7.613%	10.91%
OCC(O)CSCc1cc(Cl)ccc1Cl (stereo not drawn)	20.82%	-16.3%	11.11%
COc1ccc([C@@H]2C[C@H](NC(C)=O)C[C@H](Cc3ccccc3)O2)cn1	10.82%	-30.88%	6.25%
COc1ccc(-c2cc(N)on2)cc1OC	14.38%	-3.088%	16.49%
CCNc1ncc(CN2CCOC(Cc3cccc(OC)c3)C2)cn1 (stereo not drawn)	8.478%	-11.91%	17.7%

Once more, the final 5:

{"structure": "Cc1ccc(CN2CCC[C@@H]3CN(C(=O)c4ccco4)C[C@@H]32)s1", "Pks13 thioesterase": -7.613, "LiHisRS": 10.91}
{"structure": "OCC(O)CSCc1cc(Cl)ccc1Cl", "stereo": "stereo not drawn", "Leishmania in macrophages": 20.82, "Pks13 thioesterase": -16.3, "LiHisRS": 11.11}
{"structure": "COc1ccc([C@@H]2C[C@H](NC(C)=O)C[C@H](Cc3ccccc3)O2)cn1", "Leishmania in macrophages": 10.82, "Pks13 thioesterase": -30.88, "LiHisRS": 6.25}
{"structure": "COc1ccc(-c2cc(N)on2)cc1OC", "Leishmania in macrophages": 14.38, "Pks13 thioesterase": -3.088, "LiHisRS": 16.49}
{"structure": "CCNc1ncc(CN2CCOC(Cc3cccc(OC)c3)C2)cn1", "stereo": "stereo not drawn", "Leishmania in macrophages": 8.478, "Pks13 thioesterase": -11.91, "LiHisRS": 17.7}

The values are deposited in ChEMBL (CHEMBL3988442, “University of Dundee, Small-Polar-MMV Screening Library” (2021)).